# Data: the supplement of paper PMC12823440, “Inhibitors supercharge kinase turnover through native proteolytic circuits” (Nature, 2025)
# Chains of the proteins cited; added tags and fusions are not shown. Lines headed by an entry give the natural chain unless they say otherwise; changes in a name come on top.
# UniProt Q15208: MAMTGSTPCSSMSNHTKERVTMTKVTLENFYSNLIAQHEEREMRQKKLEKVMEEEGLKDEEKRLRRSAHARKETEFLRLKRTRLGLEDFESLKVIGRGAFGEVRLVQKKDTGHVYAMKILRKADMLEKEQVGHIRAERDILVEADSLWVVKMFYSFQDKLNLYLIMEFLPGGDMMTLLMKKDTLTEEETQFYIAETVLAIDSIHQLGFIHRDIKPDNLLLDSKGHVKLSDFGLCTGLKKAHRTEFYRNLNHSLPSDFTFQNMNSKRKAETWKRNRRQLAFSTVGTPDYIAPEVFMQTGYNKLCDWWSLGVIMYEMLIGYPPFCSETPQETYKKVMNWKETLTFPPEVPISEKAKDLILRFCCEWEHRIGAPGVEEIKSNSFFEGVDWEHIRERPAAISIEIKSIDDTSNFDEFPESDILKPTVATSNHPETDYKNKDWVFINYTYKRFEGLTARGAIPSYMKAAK
# UniProt P29597: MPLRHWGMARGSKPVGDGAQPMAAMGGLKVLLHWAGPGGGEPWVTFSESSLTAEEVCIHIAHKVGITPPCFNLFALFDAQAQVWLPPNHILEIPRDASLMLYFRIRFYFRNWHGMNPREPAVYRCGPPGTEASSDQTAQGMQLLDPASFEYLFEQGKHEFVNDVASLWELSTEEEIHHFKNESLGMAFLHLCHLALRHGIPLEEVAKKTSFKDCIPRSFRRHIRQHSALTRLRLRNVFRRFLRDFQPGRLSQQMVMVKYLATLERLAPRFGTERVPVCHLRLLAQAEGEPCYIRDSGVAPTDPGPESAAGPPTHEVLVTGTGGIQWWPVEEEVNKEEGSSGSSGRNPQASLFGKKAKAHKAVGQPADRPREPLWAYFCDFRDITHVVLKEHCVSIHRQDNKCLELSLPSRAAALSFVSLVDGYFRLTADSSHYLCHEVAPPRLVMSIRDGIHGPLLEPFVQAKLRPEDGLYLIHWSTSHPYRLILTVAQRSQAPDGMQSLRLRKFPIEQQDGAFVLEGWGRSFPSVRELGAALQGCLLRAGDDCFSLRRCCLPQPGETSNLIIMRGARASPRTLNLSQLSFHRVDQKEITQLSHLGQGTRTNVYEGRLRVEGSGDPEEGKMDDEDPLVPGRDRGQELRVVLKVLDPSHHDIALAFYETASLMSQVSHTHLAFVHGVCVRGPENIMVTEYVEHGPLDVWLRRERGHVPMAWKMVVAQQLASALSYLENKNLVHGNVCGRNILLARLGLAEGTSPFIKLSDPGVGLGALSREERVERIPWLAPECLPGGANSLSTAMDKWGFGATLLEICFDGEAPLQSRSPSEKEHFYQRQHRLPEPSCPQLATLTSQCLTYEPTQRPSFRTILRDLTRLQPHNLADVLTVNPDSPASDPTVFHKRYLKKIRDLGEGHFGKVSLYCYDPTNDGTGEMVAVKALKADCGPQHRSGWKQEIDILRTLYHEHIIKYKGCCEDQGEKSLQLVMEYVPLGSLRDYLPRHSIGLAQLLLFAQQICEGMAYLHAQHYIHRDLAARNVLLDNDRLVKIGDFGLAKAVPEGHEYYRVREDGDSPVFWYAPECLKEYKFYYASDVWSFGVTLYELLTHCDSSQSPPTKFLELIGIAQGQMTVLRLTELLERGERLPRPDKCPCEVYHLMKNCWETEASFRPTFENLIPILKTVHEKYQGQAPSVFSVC
# UniProt Q6PHR2: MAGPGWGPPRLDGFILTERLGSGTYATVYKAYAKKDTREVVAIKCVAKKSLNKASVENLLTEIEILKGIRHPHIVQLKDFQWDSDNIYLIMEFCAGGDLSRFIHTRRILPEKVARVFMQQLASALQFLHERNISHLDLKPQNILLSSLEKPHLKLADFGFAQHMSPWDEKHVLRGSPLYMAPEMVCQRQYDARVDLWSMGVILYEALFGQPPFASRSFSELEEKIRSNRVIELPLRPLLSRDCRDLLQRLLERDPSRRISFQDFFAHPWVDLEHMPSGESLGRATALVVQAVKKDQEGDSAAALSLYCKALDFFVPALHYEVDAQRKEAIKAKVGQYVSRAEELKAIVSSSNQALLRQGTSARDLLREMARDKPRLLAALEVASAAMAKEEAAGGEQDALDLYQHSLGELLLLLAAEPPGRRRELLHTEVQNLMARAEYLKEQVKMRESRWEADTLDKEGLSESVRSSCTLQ
# UniProt P07947, whole entry, looked up: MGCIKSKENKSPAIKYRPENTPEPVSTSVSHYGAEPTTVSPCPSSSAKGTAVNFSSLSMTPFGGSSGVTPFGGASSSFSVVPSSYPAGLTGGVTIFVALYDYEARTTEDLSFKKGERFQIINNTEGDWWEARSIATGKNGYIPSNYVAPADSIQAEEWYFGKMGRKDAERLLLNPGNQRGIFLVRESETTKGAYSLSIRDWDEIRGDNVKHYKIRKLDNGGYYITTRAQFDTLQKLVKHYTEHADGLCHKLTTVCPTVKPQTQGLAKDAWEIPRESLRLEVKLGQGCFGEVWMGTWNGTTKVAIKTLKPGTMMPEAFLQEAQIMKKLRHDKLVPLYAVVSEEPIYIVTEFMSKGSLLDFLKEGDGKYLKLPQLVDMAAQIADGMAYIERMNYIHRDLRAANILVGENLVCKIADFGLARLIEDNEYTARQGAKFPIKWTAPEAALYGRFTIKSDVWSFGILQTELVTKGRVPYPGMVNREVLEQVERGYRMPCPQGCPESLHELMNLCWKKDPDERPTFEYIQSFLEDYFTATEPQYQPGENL
# UniProt P43403: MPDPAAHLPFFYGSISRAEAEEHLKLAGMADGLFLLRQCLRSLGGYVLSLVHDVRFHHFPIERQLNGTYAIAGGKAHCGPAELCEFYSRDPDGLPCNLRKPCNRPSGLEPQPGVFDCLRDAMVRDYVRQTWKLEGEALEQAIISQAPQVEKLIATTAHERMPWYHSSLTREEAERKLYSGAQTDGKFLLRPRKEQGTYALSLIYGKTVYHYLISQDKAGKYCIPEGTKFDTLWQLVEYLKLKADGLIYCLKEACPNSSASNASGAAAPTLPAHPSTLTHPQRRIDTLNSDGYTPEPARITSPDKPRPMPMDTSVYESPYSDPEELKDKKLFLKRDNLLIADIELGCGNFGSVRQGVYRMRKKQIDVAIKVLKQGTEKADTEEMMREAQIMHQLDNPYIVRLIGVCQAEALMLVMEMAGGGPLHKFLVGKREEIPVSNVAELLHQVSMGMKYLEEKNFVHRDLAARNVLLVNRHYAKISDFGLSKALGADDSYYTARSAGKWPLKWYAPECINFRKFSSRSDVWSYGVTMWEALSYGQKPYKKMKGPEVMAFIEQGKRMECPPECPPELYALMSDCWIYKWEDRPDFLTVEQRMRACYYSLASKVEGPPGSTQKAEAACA
# UniProt Q9UM73: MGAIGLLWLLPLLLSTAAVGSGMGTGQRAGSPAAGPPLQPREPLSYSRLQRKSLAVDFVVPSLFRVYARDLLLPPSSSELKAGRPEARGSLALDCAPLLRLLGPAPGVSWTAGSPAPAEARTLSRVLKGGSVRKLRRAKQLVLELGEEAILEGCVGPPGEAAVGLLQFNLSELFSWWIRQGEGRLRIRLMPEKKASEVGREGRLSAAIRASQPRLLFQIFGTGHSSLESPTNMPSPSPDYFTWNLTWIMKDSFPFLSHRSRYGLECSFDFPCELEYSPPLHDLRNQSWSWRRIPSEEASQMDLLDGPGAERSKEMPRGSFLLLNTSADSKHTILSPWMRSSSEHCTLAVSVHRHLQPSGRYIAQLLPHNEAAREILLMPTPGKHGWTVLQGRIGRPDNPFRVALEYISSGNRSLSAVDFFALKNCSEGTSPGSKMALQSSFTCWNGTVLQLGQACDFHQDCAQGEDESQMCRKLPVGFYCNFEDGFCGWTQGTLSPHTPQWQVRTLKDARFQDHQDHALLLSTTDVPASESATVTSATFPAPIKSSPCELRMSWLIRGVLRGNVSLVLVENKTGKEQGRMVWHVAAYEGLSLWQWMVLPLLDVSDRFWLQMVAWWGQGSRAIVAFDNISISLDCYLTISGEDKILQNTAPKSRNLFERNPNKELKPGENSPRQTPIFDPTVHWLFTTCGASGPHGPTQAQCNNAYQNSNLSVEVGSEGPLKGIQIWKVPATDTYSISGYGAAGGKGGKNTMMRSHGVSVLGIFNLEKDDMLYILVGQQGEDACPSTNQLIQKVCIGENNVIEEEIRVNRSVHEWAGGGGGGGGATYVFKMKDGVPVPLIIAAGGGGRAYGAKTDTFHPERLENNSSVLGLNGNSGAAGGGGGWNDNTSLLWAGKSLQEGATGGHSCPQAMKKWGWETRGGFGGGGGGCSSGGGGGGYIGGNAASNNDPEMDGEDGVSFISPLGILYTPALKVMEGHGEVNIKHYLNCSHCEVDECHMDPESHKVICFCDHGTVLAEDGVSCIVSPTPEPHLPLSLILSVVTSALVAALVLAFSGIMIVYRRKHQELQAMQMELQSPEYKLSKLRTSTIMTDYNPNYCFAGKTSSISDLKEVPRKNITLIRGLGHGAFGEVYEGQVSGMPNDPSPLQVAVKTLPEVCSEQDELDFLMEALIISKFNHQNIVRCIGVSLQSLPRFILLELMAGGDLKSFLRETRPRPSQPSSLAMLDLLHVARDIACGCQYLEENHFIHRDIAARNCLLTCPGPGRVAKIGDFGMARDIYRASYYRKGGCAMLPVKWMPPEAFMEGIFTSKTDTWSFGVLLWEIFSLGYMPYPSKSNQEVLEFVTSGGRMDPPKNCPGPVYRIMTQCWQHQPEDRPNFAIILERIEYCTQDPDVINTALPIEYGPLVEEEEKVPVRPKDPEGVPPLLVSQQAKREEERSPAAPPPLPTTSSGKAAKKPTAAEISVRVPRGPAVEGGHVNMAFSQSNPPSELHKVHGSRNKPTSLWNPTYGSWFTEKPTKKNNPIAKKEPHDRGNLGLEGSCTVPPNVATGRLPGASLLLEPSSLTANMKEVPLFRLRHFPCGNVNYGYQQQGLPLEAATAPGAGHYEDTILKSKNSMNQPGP
# UniProt P10398: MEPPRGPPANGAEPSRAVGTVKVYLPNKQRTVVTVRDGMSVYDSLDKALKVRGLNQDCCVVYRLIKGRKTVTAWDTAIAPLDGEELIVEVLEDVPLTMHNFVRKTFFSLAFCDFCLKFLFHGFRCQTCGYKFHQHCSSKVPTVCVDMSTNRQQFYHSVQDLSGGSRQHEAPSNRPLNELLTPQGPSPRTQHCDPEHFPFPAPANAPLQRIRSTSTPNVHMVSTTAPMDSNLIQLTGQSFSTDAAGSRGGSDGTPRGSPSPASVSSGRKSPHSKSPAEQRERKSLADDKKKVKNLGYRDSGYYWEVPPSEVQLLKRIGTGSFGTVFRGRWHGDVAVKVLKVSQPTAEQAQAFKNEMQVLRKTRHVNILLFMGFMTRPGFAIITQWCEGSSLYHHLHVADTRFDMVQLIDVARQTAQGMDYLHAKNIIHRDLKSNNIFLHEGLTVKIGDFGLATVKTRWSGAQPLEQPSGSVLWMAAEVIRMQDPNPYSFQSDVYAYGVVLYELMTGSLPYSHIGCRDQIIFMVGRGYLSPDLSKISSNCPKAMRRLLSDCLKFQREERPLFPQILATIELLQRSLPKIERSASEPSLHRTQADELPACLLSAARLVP
# UniProt O14965: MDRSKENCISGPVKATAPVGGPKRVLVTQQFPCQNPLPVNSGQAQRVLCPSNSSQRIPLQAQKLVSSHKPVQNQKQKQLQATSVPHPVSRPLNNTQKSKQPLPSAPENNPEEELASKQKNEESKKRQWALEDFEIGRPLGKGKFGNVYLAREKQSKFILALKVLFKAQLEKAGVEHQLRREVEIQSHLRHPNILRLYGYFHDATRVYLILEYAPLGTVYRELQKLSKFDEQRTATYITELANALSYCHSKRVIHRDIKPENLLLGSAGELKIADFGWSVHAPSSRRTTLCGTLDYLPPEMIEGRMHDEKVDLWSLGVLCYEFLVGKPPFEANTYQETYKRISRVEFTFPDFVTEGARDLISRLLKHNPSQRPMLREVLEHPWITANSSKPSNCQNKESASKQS
# UniProt Q96GD4, whole entry: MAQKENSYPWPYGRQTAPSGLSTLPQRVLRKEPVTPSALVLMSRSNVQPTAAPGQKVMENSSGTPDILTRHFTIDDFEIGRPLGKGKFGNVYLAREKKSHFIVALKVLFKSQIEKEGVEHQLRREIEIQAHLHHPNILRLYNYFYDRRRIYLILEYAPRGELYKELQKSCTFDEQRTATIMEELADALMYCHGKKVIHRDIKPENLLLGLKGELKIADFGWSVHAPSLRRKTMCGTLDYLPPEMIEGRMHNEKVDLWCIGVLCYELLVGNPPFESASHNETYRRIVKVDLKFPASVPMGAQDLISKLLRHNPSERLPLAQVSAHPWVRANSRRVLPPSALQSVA
# UniProt Q9UQB9: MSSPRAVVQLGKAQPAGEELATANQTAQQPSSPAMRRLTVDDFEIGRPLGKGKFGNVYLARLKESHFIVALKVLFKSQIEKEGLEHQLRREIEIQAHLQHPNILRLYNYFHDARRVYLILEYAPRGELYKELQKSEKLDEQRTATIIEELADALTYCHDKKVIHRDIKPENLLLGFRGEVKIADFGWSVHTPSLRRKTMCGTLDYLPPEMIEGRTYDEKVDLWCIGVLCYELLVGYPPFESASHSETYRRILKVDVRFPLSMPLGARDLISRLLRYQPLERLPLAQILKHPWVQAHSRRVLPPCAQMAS
# Counter-ions that a name gives are not always drawn. The list shows a part of the results. The calls rarely recur for the same compound in another form.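 Kinases were expressed as nanoluciferase fusions in K562 cells and luminescence was read every 4 h between 2 and 18 h as percent of control, DMSO set to 100% and a positive control to 0%. A time point counts as decreased when the signal drops significantly (2 sigma). The hit call is the authors' own, does not follow from the count of time points alone, and its rule is not shown.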
# Columns and labels:
# Settings in all cases: K562; 2-18 h
# STK38 = STK38 (UniProt Q15208); assay: kinase-Nluc reporter destabilization hit call (1 = scored as downregulated) (binary); higher = compound decreases kinase abundance
# SYK = SYK (UniProt P43405); assay: as above
# TEC = TEC (UniProt P42680); assay: as above
# TYK2 = TYK2 (UniProt P29597); assay: as above
# ULK3 = ULK3 (UniProt Q6PHR2); assay: as above
# YES1 = YES1 (UniProt P07947); assay: as above
# ZAK = ZAK (UniProt Q9NYL2); assay: as above
# ZAP70 = ZAP70 (UniProt P43403); assay: as above
# ABL1 = ABL1 (UniProt P00519); assay: number of time points (of 5) at which kinase-Nluc abundance scored as decreased, DMSO-normalised (count); higher = more persistent destabilization
# AKT1 = AKT1 (UniProt P31749); assay: as above
# ALK = ALK (UniProt Q9UM73); assay: as above
# ARAF = ARAF (UniProt P10398); assay: as above
# AURKA = AURKA (UniProt O14965); assay: as above
# AURKB = AURKB (UniProt Q96GD4); assay: as above
# AURKC = AURKC (UniProt Q9UQB9); assay: as above
# BLK = BLK (UniProt P51451); assay: as above
# BMX = BMX (UniProt P51813); assay: as above
# BRAF = BRAF (UniProt P15056); assay: as above
# BRAF_V600E = assay: as above
# BTK = BTK (UniProt Q06187); assay: as above
Compound,kinase-Nluc reporter destabilization hit call (STK38),kinase-Nluc reporter destabilization hit call (SYK),kinase-Nluc reporter destabilization hit call (TEC),kinase-Nluc reporter destabilization hit call (TYK2),kinase-Nluc reporter destabilization hit call (ULK3),kinase-Nluc reporter destabilization hit call (YES1),kinase-Nluc reporter destabilization hit call (ZAK),kinase-Nluc reporter destabilization hit call (ZAP70),number of time points (ABL1),number of time points (AKT1),number of time points (ALK),number of time points (ARAF),number of time points (AURKA),number of time points (AURKB),number of time points (AURKC),number of time points (BLK),number of time points (BMX),number of time points (BRAF),number of time points (BRAF_V600E),number of time points (BTK)
Nc1n[nH]c2cc(-c3ccc(=O)n(Cc4cccc(Cl)c4)c3)ccc12 (10 µM),inactive: 0,inactive: 0,inactive: 0,inactive: 0,inactive: 0,inactive: 0,inactive: 0,inactive: 0,0,0,2,0,0,0,0,0,0,0,0,0
"CN1CC[C@H](c2c(O)cc(O)c3c(=O)cc(-c4ccc(C(F)(F)F)cc4Cl)oc23)[C@H]1CO [(2S,3R)-Voruciclib (hydrochloride)] (2.5 µM)",inactive: 0,inactive: 0,inactive: 0,inactive: 0,inactive: 0,inactive: 0,inactive: 0,inactive: 0,0,0,0,0,3,0,0,0,0,0,2,0
Cc1cc(Nc2nc(N[C@@H](C)c3ncc(F)cn3)ncc2Cl)[nH]n1 (10 µM),inactive: 0,inactive: 0,inactive: 0,inactive: 0,inactive: 0,inactive: 0,inactive: 0,inactive: 0,0,0,0,0,0,0,0,0,0,0,0,0
O[C@H]1CC[C@H](Nc2ncc3nc(Nc4c(F)cc(F)cc4F)n([C@H]4CCOC4)c3n2)CC1 [Tanzisertib] (10 µM),inactive: 0,inactive: 0,inactive: 0,inactive: 0,inactive: 0,inactive: 0,inactive: 0,inactive: 0,0,0,0,0,0,0,0,0,0,0,0,0
COC1(C(=O)N[C@@H](C)c2ccc(-n3cc(F)cn3)nc2)CCC(c2nc(C)cc(Nc3cc(C)[nH]n3)n2)CC1 (stereo partly drawn) [trans-Pralsetinib] (2.5 µM),inactive: 0,inactive: 0,inactive: 0,inactive: 0,inactive: 0,inactive: 0,inactive: 0,inactive: 0,0,0,0,0,0,0,0,0,0,0,0,0
O=c1[nH]ccc2cc(OC3CCNCC3)ccc12 (10 µM),inactive: 0,inactive: 0,inactive: 0,inactive: 0,inactive: 0,inactive: 0,inactive: 0,inactive: 0,0,0,0,0,0,0,0,0,0,0,0,0
C[C@H]1[C@H](OC(=O)CCC(=O)O)O[C@@H]2O[C@@]3(C)CC[C@H]4[C@H](C)CC[C@@H]1[C@@]24OO3 [Artesunate] (2.5 µM),inactive: 0,inactive: 0,inactive: 0,inactive: 0,inactive: 0,inactive: 0,inactive: 0,inactive: 0,2,0,0,0,1,1,0,0,0,0,1,0
Cn1ncc(Cl)c1-c1cc(C(=O)N[C@H](CN)Cc2ccc(F)c(F)c2)sc1Cl (10 µM),inactive: 0,inactive: 0,inactive: 0,inactive: 0,inactive: 0,inactive: 0,inactive: 0,inactive: 0,4,0,0,0,3,1,0,0,0,0,1,0
c1ccc(-c2oc3ncnc(NC[C@@H]4CCCO4)c3c2-c2ccccc2)cc1 (2.5 µM),inactive: 0,inactive: 0,inactive: 0,inactive: 0,inactive: 0,inactive: 0,inactive: 0,inactive: 0,0,0,0,0,0,0,0,0,0,0,0,0
CCOc1nc(Nc2ccc(C(=O)N3CCOCC3)cc2OC)nc2[nH]ccc12 [LRRK2 inhibitor 1] (2.5 µM),inactive: 0,inactive: 0,inactive: 0,inactive: 0,inactive: 0,inactive: 0,inactive: 0,inactive: 0,0,0,0,0,0,0,0,0,0,0,0,0
C[C@@H]1O[C@@H](OC[C@H]2O[C@@H](Oc3cc(O)c4c(c3)O[C@H](c3ccc(O)cc3)CC4=O)[C@H](O)[C@@H](O)[C@@H]2O)[C@H](O)[C@H](O)[C@H]1O [Narirutin] (10 µM),inactive: 0,inactive: 0,inactive: 0,inactive: 0,inactive: 0,inactive: 0,inactive: 0,inactive: 0,0,0,0,0,0,0,0,0,0,0,0,0
CCOc1ccccc1C=C1C(=O)Nc2ccccc21 (10 µM),inactive: 0,inactive: 0,inactive: 0,inactive: 0,inactive: 0,inactive: 0,inactive: 0,inactive: 0,2,0,0,0,0,0,0,0,0,0,0,0
CC(=O)Nc1nc2ccc(-c3cnc(C)c(NC(=O)OC4CCCCC4)c3)cc2s1 (10 µM),inactive: 0,inactive: 0,inactive: 0,inactive: 0,inactive: 0,inactive: 0,inactive: 0,inactive: 0,0,0,0,0,0,0,0,0,0,0,0,0
C[C@@H]1CCc2ncc(F)cc2[C@H]2CCCN2c2ccn3ncc(c3n2)C(=O)N1 [Selitrectinib] (10 µM),inactive: 0,inactive: 0,inactive: 0,inactive: 0,inactive: 0,inactive: 0,inactive: 0,inactive: 0,0,0,0,0,0,0,0,0,0,1,0,0
CCC(C)(C)C(=O)N(O)Cc1ccccc1 (10 µM),inactive: 0,inactive: 0,inactive: 0,inactive: 0,inactive: 0,inactive: 0,inactive: 0,inactive: 0,0,0,0,0,0,0,0,1,0,0,0,0
O=[N+]([O-])c1ccc(Sc2cccc[n+]2[O-])c2nonc12 (2.5 µM),inactive: 0,inactive: 0,inactive: 0,inactive: 0,inactive: 0,inactive: 0,inactive: 0,inactive: 0,0,0,0,0,0,0,0,0,0,0,0,0
COc1cc(C(C)=O)cc(OC)c1O [Acetosyringone] (10 µM),inactive: 0,inactive: 0,inactive: 0,inactive: 0,inactive: 0,inactive: 0,inactive: 0,inactive: 0,0,0,0,0,0,0,0,0,0,0,0,0
Oc1ccccc1C(=S)N1CCCC1 (10 µM),inactive: 0,inactive: 0,inactive: 0,inactive: 0,inactive: 0,inactive: 0,inactive: 0,inactive: 0,0,0,0,0,0,0,0,0,0,0,0,0
CN1C(=O)NC(Cc2c[nH]c3c(Cl)cccc23)C1=O (racemic) [Necrostatin 2 (racemate)] (10 µM),inactive: 0,inactive: 0,inactive: 0,inactive: 0,inactive: 0,inactive: 0,inactive: 0,inactive: 0,0,0,0,0,0,0,0,0,0,0,0,0
COC(=O)N[C@@H](C)CNc1nccc(-c2cn(C(C)C)nc2-c2cc(Cl)cc(NS(C)(=O)=O)c2F)n1 [Encorafenib] (10 µM),inactive: 0,inactive: 0,inactive: 0,inactive: 0,inactive: 0,inactive: 0,inactive: 0,inactive: 0,0,0,0,0,0,0,0,0,0,0,0,0
O=C1NCCCc2c1oc1ccc(O)cc21 (10 µM),inactive: 0,inactive: 0,inactive: 0,inactive: 0,inactive: 0,inactive: 0,inactive: 0,inactive: 0,0,0,0,0,0,0,0,0,0,0,0,0

# Of the compounds above, these contain an aryl methoxy group:
Compound,kinase-Nluc reporter destabilization hit call (STK38),kinase-Nluc reporter destabilization hit call (SYK),kinase-Nluc reporter destabilization hit call (TEC),kinase-Nluc reporter destabilization hit call (TYK2),kinase-Nluc reporter destabilization hit call (ULK3),kinase-Nluc reporter destabilization hit call (YES1),kinase-Nluc reporter destabilization hit call (ZAK),kinase-Nluc reporter destabilization hit call (ZAP70),number of time points (ABL1),number of time points (AKT1),number of time points (ALK),number of time points (ARAF),number of time points (AURKA),number of time points (AURKB),number of time points (AURKC),number of time points (BLK),number of time points (BMX),number of time points (BRAF),number of time points (BRAF_V600E),number of time points (BTK)
CCOc1nc(Nc2ccc(C(=O)N3CCOCC3)cc2OC)nc2[nH]ccc12 [LRRK2 inhibitor 1] (2.5 µM),inactive: 0,inactive: 0,inactive: 0,inactive: 0,inactive: 0,inactive: 0,inactive: 0,inactive: 0,0,0,0,0,0,0,0,0,0,0,0,0
COc1cc(C(C)=O)cc(OC)c1O [Acetosyringone] (10 µM),inactive: 0,inactive: 0,inactive: 0,inactive: 0,inactive: 0,inactive: 0,inactive: 0,inactive: 0,0,0,0,0,0,0,0,0,0,0,0,0
